Positions count from the first letter of the chain named. These are yes or no findings as the source states them, for the method shown. A result given as binding can be weak or reduced; the word gives no strength.
B1: Hu 52H5D3B8-8 (antibody, human IgG1, kappa, V domains shown)
VH: EVQLVQSGAEVKKPGASVKVSCKASGYTFTDYEMHWVRQAPGQGLEWMGAIHPGSGGTAYNQKFKGRVTMTADKSISTAYMELSRLRSDDTAVYYCTRFYSYAYWGQGTLVTVSS
VL: DVVMTQTPLSLSVTPGQPASISCRSSQSLVHSNGNTYLQWYLQKPGQSPQLLIYKVSNRFSGVPDRFSGSGSGTDFTLKISRVEAEDVGVYFCSQSIHVPYTFGGGTKVEIKR
notes: also called humanized GPC3 antibody Hu 52H5D3B8-8
B2: GC33 antibody (Chugai Pharmaceutical) (antibody, V domains shown)
VH: QVQLVQSGAEVKKPGASVKVSCKASGYTFTDYEMHWVRQAPGQGLEWMGALDPKTGDTAYSQKFKGRVTLTADKSTSTAYMELSSLTSEDTAVYYCTRFYSYTYWGQGTLVTVSS
VL: DVVMTQSPLSLPVTPGEPASISCRSSQSLVHSNGNTYLHWYLQKPGQSPQLLIYKVSNRFSGVPDRFSGSGSGTDFTLKISRVEAEDVGVYYCSQNTHVPPTFGQGTKLEIK
notes: Control antibody, prepared as in US 7919086 B2; Whole antibody; Detected with anti-human IgG
B3: Hu 52H5D3B8-7 (antibody, human IgG1, kappa, V domains shown)
VH: B1 VH
VL: B1 VL with F92Y
notes: also called humanized GPC3 antibody Hu 52H5D3B8-7
B4: Y035 CDRs with Hu 52H5D3B8-7 FRs (antibody, V domains shown)
VH: B1 VH with G57D, K63R
VL: B2 VL with S7T, P12S, E17Q, H39Q, N96S, T97I, H98Y, P101Y, Q105G, L109V
notes: built here from the pieces; detected with anti-human IgG

Amino acid sequences for entries named in this document (tags omitted). A change or cut given only in a name is not applied to a line headed by its entry.
UniProt P51654: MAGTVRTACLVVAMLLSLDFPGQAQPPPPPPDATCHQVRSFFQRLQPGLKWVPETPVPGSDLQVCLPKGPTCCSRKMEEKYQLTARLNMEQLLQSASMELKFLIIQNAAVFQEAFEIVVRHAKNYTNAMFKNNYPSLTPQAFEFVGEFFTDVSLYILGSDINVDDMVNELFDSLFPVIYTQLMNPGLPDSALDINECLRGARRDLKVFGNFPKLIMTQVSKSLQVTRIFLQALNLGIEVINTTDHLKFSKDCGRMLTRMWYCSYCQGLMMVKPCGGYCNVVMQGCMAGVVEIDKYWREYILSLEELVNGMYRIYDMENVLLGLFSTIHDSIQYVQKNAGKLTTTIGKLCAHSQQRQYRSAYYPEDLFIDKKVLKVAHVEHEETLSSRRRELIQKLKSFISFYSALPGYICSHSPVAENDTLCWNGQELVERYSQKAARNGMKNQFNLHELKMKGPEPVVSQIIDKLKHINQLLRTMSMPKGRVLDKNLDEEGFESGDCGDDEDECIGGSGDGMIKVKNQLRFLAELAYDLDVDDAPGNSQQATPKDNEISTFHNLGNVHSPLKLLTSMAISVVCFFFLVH

These binders were tested against T1, human GPC3 (Glypican-3) (human, UniProt P51654 25-580) (assay: FACS on HepG2 cells).

| Binder | binding |
| --- | --- |
| B1 | binds |
| B2 | binds |

Each binder was assayed against T1, human GPC3 (Glypican-3) (assay: FACS on GPC3-CHO-K1, HepG2 and Huh-7 cells).

| Binder | binding |
| --- | --- |
| B1 | binds |
| B3 | binds |
| B2 | binds |
| B4 | binds |
